# Data: the supplement of paper PMC6411743
# ± gives the standard deviation of the averaged measurements. The entries are a selection whose mix differs from that of the whole data set. Most values lie at the level of the controls, where differences are scatter.
# Target: VKORC1 (UniProt Q9BQB6)
# Test: NP40-soluble protein abundance relative to vehicle (solubility fold change) (ratio); higher = more soluble protein in presence of ATP
# How it was run: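 Jurkat crude lysate (Dounce-homogenised) was treated with eight concentrations from 0.1 to 10 mM for 10 min at room temperature, then 3 min at 37 °C. It was solubilised with 0.8% NP40 and benzonase (60 min, 4 °C) and ultracentrifuged, and the supernatant was TMT-labelled for LC-MS/MS. Intensities were vsn-normalised, and the value is the fold change against the NP40-processed vehicle per replicate, from three independent experiments.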
smiles,measurement,setting,value
Nc1ncnc2c1ncn2[C@@H]1O[C@H](COP(=O)(O)OP(=O)(O)OP(=O)(O)O)[C@@H](O)[C@H]1O [adenosine triphosphate],NP40-soluble protein abundance,concentration: 0.1mM,1.02 ± 0.042
same,NP40-soluble protein abundance,concentration: 0.5mM,0.978 ± 0.056
